Measurements published in PMC10502019.
Results are given in words; binding and its absence hold for the method and conditions named. Binding seen in cells or lysates may run through a third protein. Some binding calls cover weakened binding; strength is not graded here.

T1: Fsd2 (Fibronectin Type III and SPRY Domain Containing 2) (mouse (endogenous in mouse muscle and heart)) (UniProt Q8BZ52)
T1 sequence: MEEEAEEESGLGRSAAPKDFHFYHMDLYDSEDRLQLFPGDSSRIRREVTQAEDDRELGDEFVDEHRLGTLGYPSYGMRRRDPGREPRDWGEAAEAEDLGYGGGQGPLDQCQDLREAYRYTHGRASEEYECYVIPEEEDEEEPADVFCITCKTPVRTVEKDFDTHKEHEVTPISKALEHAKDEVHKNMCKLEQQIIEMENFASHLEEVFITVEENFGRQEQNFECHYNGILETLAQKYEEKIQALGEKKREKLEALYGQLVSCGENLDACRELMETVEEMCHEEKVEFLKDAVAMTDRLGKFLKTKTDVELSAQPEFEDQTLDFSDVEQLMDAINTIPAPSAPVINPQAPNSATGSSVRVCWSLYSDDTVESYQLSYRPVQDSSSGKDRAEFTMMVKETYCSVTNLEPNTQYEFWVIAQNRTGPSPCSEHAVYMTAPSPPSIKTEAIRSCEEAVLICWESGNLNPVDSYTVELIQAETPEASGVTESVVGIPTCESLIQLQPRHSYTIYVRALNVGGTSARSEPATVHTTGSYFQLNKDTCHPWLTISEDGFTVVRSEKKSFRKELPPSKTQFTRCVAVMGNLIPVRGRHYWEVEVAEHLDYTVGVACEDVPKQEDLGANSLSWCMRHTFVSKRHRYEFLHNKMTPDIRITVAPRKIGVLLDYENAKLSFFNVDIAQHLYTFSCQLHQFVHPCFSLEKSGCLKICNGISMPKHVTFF

T2: Esd (Esterase D, a serine hydrolase) (mouse (endogenous in mouse muscle and heart)) (UniProt Q9R0P3)
T2 sequence: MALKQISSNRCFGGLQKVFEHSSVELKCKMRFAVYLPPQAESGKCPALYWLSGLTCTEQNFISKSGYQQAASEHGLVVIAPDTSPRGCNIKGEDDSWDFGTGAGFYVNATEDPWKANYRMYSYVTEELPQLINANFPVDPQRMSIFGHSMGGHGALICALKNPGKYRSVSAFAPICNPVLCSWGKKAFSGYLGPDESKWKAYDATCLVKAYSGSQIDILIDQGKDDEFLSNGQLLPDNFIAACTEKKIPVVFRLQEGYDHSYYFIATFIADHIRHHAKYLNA


Key:
[1] = target: T1, Fsd2 (Fibronectin Type III and SPRY Domain Containing 2) (mouse (endogenous in mouse muscle and heart)); experiment: co-IP; IPs with Fsd2 and Esd antibodies; western blotting of the immunoprecipitates
[2] = target: T2, Esd (Esterase D, a serine hydrolase) (mouse (endogenous in mouse muscle and heart)); experiment: as above

binding [1] | binding [2] | Binder
binds | – | Esd (Esterase D, a serine hydrolase) (enzyme, UniProt Q9R0P3 1-282) MALKQISSNRCFGGLQKVFEHSSVELKCKMRFAVYLPPQAESGKCPALYWLSGLTCTEQNFISKSGYQQAASEHGLVVIAPDTSPRGCNIKGEDDSWDFGTGAGFYVNATEDPWKANYRMYSYVTEELPQLINANFPVDPQRMSIFGHSMGGHGALICALKNPGKYRSVSAFAPICNPVLCSWGKKAFSGYLGPDESKWKAYDATCLVKAYSGSQIDILIDQGKDDEFLSNGQLLPDNFIAACTEKKIPVVFRLQEGYDHSYYFIATFIADHIRHHAKYLNA
– | binds | Fsd2 (Fibronectin Type III and SPRY Domain Containing 2) (protein, UniProt Q8BZ52 1-716) MEEEAEEESGLGRSAAPKDFHFYHMDLYDSEDRLQLFPGDSSRIRREVTQAEDDRELGDEFVDEHRLGTLGYPSYGMRRRDPGREPRDWGEAAEAEDLGYGGGQGPLDQCQDLREAYRYTHGRASEEYECYVIPEEEDEEEPADVFCITCKTPVRTVEKDFDTHKEHEVTPISKALEHAKDEVHKNMCKLEQQIIEMENFASHLEEVFITVEENFGRQEQNFECHYNGILETLAQKYEEKIQALGEKKREKLEALYGQLVSCGENLDACRELMETVEEMCHEEKVEFLKDAVAMTDRLGKFLKTKTDVELSAQPEFEDQTLDFSDVEQLMDAINTIPAPSAPVINPQAPNSATGSSVRVCWSLYSDDTVESYQLSYRPVQDSSSGKDRAEFTMMVKETYCSVTNLEPNTQYEFWVIAQNRTGPSPCSEHAVYMTAPSPPSIKTEAIRSCEEAVLICWESGNLNPVDSYTVELIQAETPEASGVTESVVGIPTCESLIQLQPRHSYTIYVRALNVGGTSARSEPATVHTTGSYFQLNKDTCHPWLTISEDGFTVVRSEKKSFRKELPPSKTQFTRCVAVMGNLIPVRGRHYWEVEVAEHLDYTVGVACEDVPKQEDLGANSLSWCMRHTFVSKRHRYEFLHNKMTPDIRITVAPRKIGVLLDYENAKLSFFNVDIAQHLYTFSCQLHQFVHPCFSLEKSGCLKICNGISMPKHVTFF
